From paper PMC9532395
Results are given in words; binding and its absence hold for the method and conditions named. For part of these data: In cells and extracts the contact can be indirect. Some results given as binding are weak or reduced against the parent protein; the word gives no strength. For part of these data: Where a sequence is shown, tags or fusion partners need not be part of it.

By UniProt entry, the sequences of proteins in these tests, tags left out.
UniProt O60260: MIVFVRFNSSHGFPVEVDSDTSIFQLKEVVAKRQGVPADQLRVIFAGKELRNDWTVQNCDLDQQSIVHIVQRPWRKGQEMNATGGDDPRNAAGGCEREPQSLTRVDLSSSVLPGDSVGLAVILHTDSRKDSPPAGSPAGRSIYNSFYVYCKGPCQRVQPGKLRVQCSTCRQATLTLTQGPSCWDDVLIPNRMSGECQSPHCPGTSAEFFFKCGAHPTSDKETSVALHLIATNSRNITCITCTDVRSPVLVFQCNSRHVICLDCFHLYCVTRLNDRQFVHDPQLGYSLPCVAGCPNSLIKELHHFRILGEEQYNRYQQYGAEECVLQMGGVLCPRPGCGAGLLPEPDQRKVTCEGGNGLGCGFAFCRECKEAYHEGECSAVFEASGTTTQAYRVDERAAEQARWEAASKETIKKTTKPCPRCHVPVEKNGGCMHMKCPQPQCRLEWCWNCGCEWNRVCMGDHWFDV
UniProt Q07812: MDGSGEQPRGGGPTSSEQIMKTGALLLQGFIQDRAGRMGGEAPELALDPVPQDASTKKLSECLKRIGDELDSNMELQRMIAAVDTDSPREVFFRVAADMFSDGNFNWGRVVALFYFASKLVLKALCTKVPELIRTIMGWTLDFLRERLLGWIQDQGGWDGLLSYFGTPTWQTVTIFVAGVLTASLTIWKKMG

Legend:
[1] = target: T1, Flag-CRABP2 (cellular retinoic acid binding protein 2) (UniProt P29373); assay: co-IP; Co-IP of Flag-CRABP2 with BAX/PARKIN, Protein A + G agarose, western blotting
T1 sequence: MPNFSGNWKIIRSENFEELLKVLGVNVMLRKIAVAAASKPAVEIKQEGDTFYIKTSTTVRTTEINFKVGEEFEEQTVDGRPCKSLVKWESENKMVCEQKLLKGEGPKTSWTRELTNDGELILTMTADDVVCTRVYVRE

[2] = target: T2, cellular retinoic acid binding protein 2 (endogenous) (human (endogenous in AGS)) (UniProt P29373); assay: co-IP; endogenous proteins, GC (AGS) cell lysate, Protein A + G agarose, IgG control, western blotting; also in cells transfected with sh-NC/sh-CRABP2/sh-BAX/sh-PRKN
T2 sequence: T1 sequence

[3] = target: E3 ubiquitin-protein ligase parkin (human (endogenous in AGS)) (UniProt O60260); assay: as above
[4] = target: T3, GST-CRABP2 fusion protein (UniProt P29373); assay: pull-down; GST or GST-CRABP2 (50 μg/ml) on glutathione agarose beads incubated with BAX/PARKIN protein from E. coli at 4 °C for 6 h; washed 3 times with PBST; western blotting; both purified
T3 sequence: T1 sequence

Row | binding [1] | binding [2] | binding [3] | binding [4] | Substance
1 | binds | binds | binds | – | apoptosis regulator BAX (from UniProt Q07812 1-192)
2 | – | – | – | binds | PARKIN protein (recombinant; 'GST-PARKIN fusion protein guided by 6×His') (from UniProt O60260 1-465)
3 | binds | binds | – | – | E3 ubiquitin-protein ligase parkin (from UniProt O60260 1-465)
